Experimental data published in PubChem BioAssay AID504444 (National Center for Advancing Translational Sciences (NCATS), 2011).
Out of some 360,000 compounds screened, about 7,500 (2.1%) were called active. The inconclusive results got no clear call from the source; some entries with a clear call stand among them for comparison. The call rests on the fitted dose curve; in most records, active means well fitted inhibition curve with a large enough effect; inconclusive means small, poorly fitted or top-dose-only effect, or effect the other way; inactive means flat fitted curve, though single readings scatter. Potencies beside an inconclusive call are fits to weak or partial responses and may not hold up.

assay: Nrf2 qHTS screen for inhibitors; conditions: A549 ARE-Fluc reporter, luciferase luminescence, 18-24 h; series mostly up to 46 µM; further: nearly all actives have a fitted effect of over 60% in size
Summary of the method: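 Concentration-response testing used A549 ARE_Fluc cells at 5000 cells/well. Following an 18-24 h compound incubation, viability was read by fluorescence (Ex 405/Em 525) and luciferase output by luminescence.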
Potency means the concentration at half of the fitted maximal effect.

Structure (SMILES) | Potency
Cc1cnc(NC(=O)COc2ccccc2)s1 | inconclusive: 1.84 µM [activator, partial curve]
[O-][n+]1ccc(C(O)c2ccccc2)cc1 (stereo not given) | inconclusive: 16.4 µM [falling, single point]
COc1ncnc2c1cnn2-c1ccccc1 | inconclusive: 16.4 µM [activator, partial curve, poor fit]
N#Cc1cc2c(nc1SCC(=O)Nc1nccs1)CCCCC2 | inconclusive: 0.651 µM [activator, single point]
CC(C)C(C)(C#N)NC(=O)CSc1ncnc2sc(-c3ccccc3)cc12 (stereo not given) | inconclusive: 18.4 µM [falling, single point]
CCc1ccc(OC(=O)c2cccnc2)cc1 | inconclusive: 7.31 µM [falling, partial curve, poor fit]
CC(=O)/C(N=Nc1cccc(C(F)(F)F)c1)=C(\C)O | inactive
CN(c1ccc(F)cc1)S(=O)(=O)N1CCCC(C(=O)NCCc2ccccc2)C1 (stereo not given) | inactive
O=C(N/N=C/c1ccccc1Cl)c1ccncc1 | inconclusive: 6.51 µM [falling, single point]
CN(Cc1ccccc1)C(=S)NC(=O)C1CCCCC1 | inconclusive: 18.4 µM [activator, single point]
CCN(C(=S)Nc1cc(S(=O)(=O)N2CCOCC2)ccc1Cl)c1cccc2ccccc12 | inactive
O=C(Nc1ccc(F)cc1)c1ccc2c(=O)n(CC3CCCO3)c(=S)[nH]c2c1 (stereo not given) | inconclusive: 29.1 µM [falling, single point]
CCN(CC)S(=O)(=O)c1cccc(NC(=O)CNc2cccc(S(=O)(=O)N3CCOCC3)c2)c1 | active: 1.3 µM
C=CCNc1nc(Nc2ccc(OC)cc2)nc(OCC)n1 | inconclusive: 29.1 µM [falling, single point]
Cn1c2cc(S(C)=O)sc2c2cnn(Cc3cccc(N)c3)c(=O)c21 (stereo not given) | inactive
Cc1ccc(-c2cc3nccc(-c4cc([N+](=O)[O-])ccc4O)n3n2)cc1 | inconclusive: 29.1 µM [falling, single point]
O=C(COc1cccc2ccccc12)Nc1ccc(Cl)cc1C(=O)O | inconclusive: 29.1 µM [activator, single point]
CCc1nc(N)nc(N)c1-c1ccc(Cl)c([N+](=O)[O-])c1 | active: 0.366 µM
O=C(Nc1cccc(-c2nc3ccccc3o2)c1)c1ccc(N2C(=O)C3C4C=CC(C4)C3C2=O)cc1 (stereo not given) | active: 9.2 µM
Cc1ccc(C)c(Cn2c(=O)n(CCCC(=O)NCCc3ccc(Cl)cc3)c(=O)c3ccccc32)c1 | inactive
OCCNc1nc(-c2ccccc2)nc2ccccc12 | inconclusive: 14.6 µM [falling, partial curve, poor fit]
COc1ccc(C(C[N+](=O)[O-])c2c(C)cc3ccccn23)c(OC)c1 (stereo not given) | inconclusive: 25.9 µM [falling, single point]

Structure (SMILES) | Potency
O=c1[nH]c2cc3c(cc2cc1C(c1nnnn1C1CCCCC1)N1CCSCC1)OCCO3 (stereo not given) | inconclusive: 3.66 µM [activator, partial curve, poor fit]
COc1ccc(NC(=O)/C=C/c2ccccc2)c([N+](=O)[O-])c1 | inconclusive: 14.6 µM [activator, partial curve, poor fit]
CCOC(=O)c1nn(-c2ccc(OCC)cc2)c2nc(CC(C)C)c(C#N)c(=O)n12 | inactive
Cc1ccc(C)c(S(=O)(=O)N2CCN(C(=O)Cc3sc(C)nc3-c3ccc(F)cc3)CC2)c1 | inconclusive: 16.4 µM [falling, single point]
Cc1cc(C(=O)CSc2nnc(-c3cccs3)o2)c(C)n1-c1ccccc1 | active: 20.6 µM
Cc1ccc(C)n1-c1ccc(C(=O)Nc2ccccc2F)cc1 | inconclusive: 8.2 µM [activator, partial curve]
COc1ccccc1NS(=O)(=O)c1ccc2c(c1)NC(=O)CC(=O)N2 | inactive
CCOC(=O)N1CCN(C(=O)CS(=O)(=O)Cc2nc(-c3ccccc3C)oc2C)CC1 | inconclusive: 1.84 µM [falling, partial curve, poor fit]
COc1ccc(-c2sc3cc(OC)c(OC)cc3c2C#CC2(O)CCCCC2)cc1 | inactive
COc1ccc2c(c1)C(=O)c1ccccc1CO2 | inconclusive: 10.3 µM [activator, partial curve]
Cc1ccccc1N1CCN(C(=O)CCN2C(=O)c3ccccc3C2=O)CC1 | inconclusive: 8.2 µM [activator, partial curve, poor fit]
C/C(=N\Nc1ccc(C(=O)c2c(C)cc3ccccn23)cc1[N+](=O)[O-])c1ccc(O)cc1 | inconclusive: 13 µM [falling, partial curve, poor fit]
O=C(NCc1ccco1)C1CC(c2ccc(Cl)c(Cl)c2)=NO1 (stereo not given) | inactive
O=C(CSc1nc2ccc(Cl)cc2[nH]1)Nc1ccc2[nH]c(=O)[nH]c2c1 | inconclusive: 6.51 µM [activator, single point]
CCOC(=O)c1c(CN2CCN(c3ccccc3)CC2)oc2cc(Br)c(O)cc12 | inconclusive: 0.184 µM [falling, full curve, poor fit]
COCCN=c1scc(-c2cc(OC)c(OC)c(OC)c2)n1/N=C/c1c(C)[nH]c2ccccc12 | inconclusive: 23.1 µM [falling, single point]
CC(=O)C1=C(O)C(=O)N(Cc2cccnc2)C1c1ccc(Cl)cc1 (stereo not given) | inconclusive: 25.9 µM [activator, single point]
COc1ccc(C(=O)Nc2ccnn2C2CCN(C(=O)c3cnsn3)CC2)cc1 | inconclusive: 11.6 µM [activator, partial curve, poor fit]
CCOC(=O)c1c(NC(=O)CSc2nc3ccccc3c(=O)n2-c2ccc(F)cc2)sc(C(C)=O)c1C | inconclusive: 0.58 µM [falling, partial curve, poor fit]
CCOC(=O)C1CCN(C(=O)c2cn(CCOC)c(=O)c3c2c2ccccc2n3C)CC1 | inactive
CC(C)(C)c1cc(C(=O)N2CCN(c3ncccn3)CC2)ccn1 | inconclusive: 16.4 µM [falling, single point]
Cc1cc(C)c(C(=O)/C=C/c2cccc3ccccc23)c(=O)[nH]1 | active: 18.4 µM

Entries listed so far that have a furan ring, fused or not, in the order listed:
Structure (SMILES) | Potency
O=C(NCc1ccco1)C1CC(c2ccc(Cl)c(Cl)c2)=NO1 (stereo not given) | inactive
CCOC(=O)c1c(CN2CCN(c3ccccc3)CC2)oc2cc(Br)c(O)cc12 | inconclusive: 0.184 µM [falling, full curve, poor fit]

Continuation.

Structure (SMILES) | Potency
Cc1ccccc1Nc1c(C)c(C)nc2ncnn12 | inconclusive: 29.1 µM [falling, single point]
CC(C)c1ccc(NC(=O)c2cnc3sc(N4CCCC4)nn3c2=O)cc1 | active: 2.31 µM
COc1cccc(CNc2ncnc3cc(OC)c(OC)cc23)c1 | inconclusive: 6.51 µM [falling, partial curve, poor fit]
COCCOC(=O)c1c(C)oc2ccc(OC(=O)c3ccc4c(c3)OCO4)cc12 | inconclusive: 29.1 µM [falling, single point]
Cc1cc2c(cc1S(=O)(=O)N1CCN(c3cccc(C)c3C)CC1)OCCN2C | inconclusive: 14.6 µM [falling, partial curve, poor fit]
COc1ccccc1CN1C[C@@H]2C[C@@H](c3[nH]c4c(C)cccc4c3C)N3CCC[C@@]23C1=O | inconclusive: 4.61 µM [activator, full curve]
COC(=O)c1ccc(NC(=O)Nc2cccc(F)c2)cc1 | inconclusive: 8.2 µM [activator, partial curve]
O=C1CC(c2ccccc2)=Nc2ccccc2N1 | inconclusive: 20.6 µM [activator, single point]
Nc1ccc(-c2nc3c(Cl)cc(N)cc3[nH]2)cc1 | inconclusive: 29.1 µM [falling, single point]
Cc1cc(OCC(=O)NCCc2c[nH]c3ccccc23)c2c(C)cc(=O)oc2c1 | inconclusive: 25.9 µM [falling, single point]
CC(C)Cc1ccc(/C=C/C(=O)N2CCCCC2)cc1 | inconclusive: 11.6 µM [activator, partial curve]
Fc1ccc(-c2nc3ccccn3c2NCc2ccc3c(c2)OCO3)cc1 | inconclusive: 5.8 µM [activator, full curve, poor fit]
CO/N=C(/CS(=O)(=O)c1ccc(Br)cc1)c1ccc(OC)cc1 | inconclusive: 18.4 µM [falling, partial curve, poor fit]
O=C(NCc1ccccc1)N1CCN(CCO)CC1 | inconclusive: 6.51 µM [activator, partial curve, poor fit]
Cc1csc(SCC(=O)c2c(N)n(CC(C)C)c(=O)n(C)c2=O)n1 | inconclusive: 14.6 µM [falling, partial curve]
CC(Sc1nc(-c2ccccc2)cc(C(F)(F)F)n1)C(=O)O (stereo not given) | inconclusive: 23.1 µM [falling, single point]
c1ccc(CNc2c(-c3cccc(SC4CCCCC4)c3)nc3ccccn23)cc1 | inconclusive: 20.6 µM [falling, single point]
Cc1ccc(/C=N\NC(=O)Cc2noc3ccccc23)cc1 | inconclusive: 14.6 µM [activator, partial curve, poor fit]
COc1ccc(-c2oc(/N=C/N3CCOCC3)c(C#N)c2-c2ccc(OC)cc2)cc1 | inconclusive: 0.58 µM [falling, full curve, poor fit]
COc1ccc(C(=O)Nc2nnc(S(=O)(=O)N(C)c3ccc(C)cc3)s2)cc1 | inconclusive: 29.1 µM [falling, single point]
COc1ccc(C(=O)Nc2nnc(S(=O)(=O)N3CCN(c4ccc(F)cc4)CC3)s2)cc1 | inactive
